# In paper PMC6746942:
# The exact form of at least one protein or probe is not confirmed. A weaker result is weaker than the reference pair of the same experiment. Tags and fusion partners may be left off the protein sequences shown. At least one verdict was read from the data and is not stated in words by the source.
# Target: T1, YtrASa (Sulfolobus acidocaldarius) (UniProt Q4J7S4)
# T1 sequence (looked up, limits assumed): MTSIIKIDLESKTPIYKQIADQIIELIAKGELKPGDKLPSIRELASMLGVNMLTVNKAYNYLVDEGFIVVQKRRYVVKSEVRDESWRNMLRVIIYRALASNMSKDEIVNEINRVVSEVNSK
# Assay: EMSA
# Conditions: 20 mM Tris-HCl pH 8.0, 1 mM MgCl2, 0.1 mM DTT, 12.5% glycerol, 50 mM NaCl, 0.4 mM EDTA, 37 C, ~0.1 nM 32P-DNA, excess non-specific competitor DNA, 6% native PAGE, recombinant protein, protein details: C-terminal His, label: 32P
sequence,measurement,setting,value
TATTCCCCTAAATCAGCGCTTTGCTATATGACAAGGCGCATAAAAATCGACCTA (double strand) [MUT D (both secondary half sites mutated)],binding result,"strong decrease, KDapp in figure only",binds more weakly
TATTCCCCTAAATCATATATCCTCTATATGATCCGTATAATAAAAATCGACCTA (double strand) [MUT B (primary half sites mutated)],binding result,"larger effect than MUT C, KDapp in figure only",binds more weakly
"TATTCCCCTAAATCATATATCCTCTGCCGGATCCGTATAATAAAAATCGACCTA (double strand) [MUT A (Leftprim, Middleprim, Rightprim mutated)]",binding result,"almost entirely abrogated, KDapp in figure only",binds more weakly
TATTCCCCTAAATCATATATTTGCTATATGACAAGTATAATAAAAATCGACCTA (double strand) [WT ytrASa binding site (50-bp probe)],binding result,KDapp printed in figure only,binds
TATTCCCCTAAATCATATATTTGCTGCCGGACAAGTATAATAAAAATCGACCTA (double strand) [MUT C (Middleprim mutated)],binding result,"smaller effect than MUT B, KDapp in figure only",binds more weakly
